The record followed here is publication PMC10275998.

The chains behind the UniProt entries cited, without tags or fusion partners.
UniProt P55852: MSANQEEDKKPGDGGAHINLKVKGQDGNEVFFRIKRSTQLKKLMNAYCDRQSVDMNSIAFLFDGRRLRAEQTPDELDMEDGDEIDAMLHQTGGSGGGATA
UniProt P93002: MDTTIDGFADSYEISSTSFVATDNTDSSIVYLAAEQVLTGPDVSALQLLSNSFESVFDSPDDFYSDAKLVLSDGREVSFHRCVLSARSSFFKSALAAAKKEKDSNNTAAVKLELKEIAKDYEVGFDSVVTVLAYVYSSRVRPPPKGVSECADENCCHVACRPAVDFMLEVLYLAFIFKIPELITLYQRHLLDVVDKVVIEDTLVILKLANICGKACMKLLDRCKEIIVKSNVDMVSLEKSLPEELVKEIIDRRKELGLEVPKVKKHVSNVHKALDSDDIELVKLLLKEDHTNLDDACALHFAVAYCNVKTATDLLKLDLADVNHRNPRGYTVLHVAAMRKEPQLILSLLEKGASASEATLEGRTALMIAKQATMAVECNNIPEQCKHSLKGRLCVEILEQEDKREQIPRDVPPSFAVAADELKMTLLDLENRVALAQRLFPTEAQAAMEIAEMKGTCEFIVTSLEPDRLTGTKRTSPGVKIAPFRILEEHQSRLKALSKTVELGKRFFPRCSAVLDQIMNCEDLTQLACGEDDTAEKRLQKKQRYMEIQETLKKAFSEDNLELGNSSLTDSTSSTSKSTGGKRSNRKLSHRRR

The target of one experiment is BD-SUMO1 (UniProt P55852). The experiment is described as follows: two-hybrid; yeast strain Golden, GAL4 AD and BD fusions, growth of serially diluted cells on selective medium lacking tryptophan, leucine, histidine and adenine (-AHLW); SA had no obvious influence on NIb-NPR1.
Experiment [1] deals with T1, BD-fused TGACG-BINDING FACTOR 3 (Arabidopsis) (UniProt Q39234).
T1 sequence: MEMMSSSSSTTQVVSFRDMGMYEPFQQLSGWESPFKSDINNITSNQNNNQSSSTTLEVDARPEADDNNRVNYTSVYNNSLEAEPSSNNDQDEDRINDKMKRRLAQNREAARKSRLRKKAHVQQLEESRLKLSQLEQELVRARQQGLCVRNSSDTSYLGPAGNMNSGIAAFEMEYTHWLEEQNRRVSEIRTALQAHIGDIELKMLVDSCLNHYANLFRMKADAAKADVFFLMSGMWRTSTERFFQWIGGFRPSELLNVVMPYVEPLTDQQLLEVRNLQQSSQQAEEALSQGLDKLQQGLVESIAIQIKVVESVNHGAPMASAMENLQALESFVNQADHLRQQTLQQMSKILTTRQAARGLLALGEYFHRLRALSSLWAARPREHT
The description is as above.

Experiment [2] has as its target T2, TGA3, split-luciferase fusion (Arabidopsis) (UniProt Q39234).
T2 sequence: T1 sequence
The experiment is described as follows: split reporter; competitive split-luciferase in N. benthamiana leaves with a co-expressed competitor (NIb, NIb_(sim2), other potyviral NIbs, SUMO1 or GUS); 60 hpi, 10 μM D-luciferin.

Results are given in words; binding and its absence hold for the method and conditions named. For part of these data: In cells and extracts the contact can be indirect. Some results given as binding are weak or reduced against the parent protein; the word gives no strength. For part of these data: Where a sequence is shown, tags or fusion partners need not be part of it.

With “GAL4 activation domain-fused Arabidopsis NPR1 (from UniProt P93002 1-593)”, the binding result with BD-SUMO1 is reported as “no binding”; in experiment [1], “binds”.

For “NPR1-nLUC (Arabidopsis) (from UniProt P93002 1-593)”, the binding result in experiment [2] is given as “binds”.
